The values below come from PMC5905272.

The assay concerns the target full-length human KIAA0319 (human) (UniProt Q5VV43). The experiment in a line: SDS-PAGE and western blot; lysates of CAD cells overexpressing hKA, 12% SDS-PAGE under denaturing conditions, blot with R2 antiserum; band at ~300 kDa read as dimer.

No constants are given. Whether binding was seen depends on the method and setting. Some binding calls cover weakened binding; strength is not graded here.

B1: full-length human KIAA0319 (protein, UniProt Q5VV43 21-1072)
chain: ARKQCSEGRTYSNAVISPNLETTRIMRVSHTFPVVDCTAACCDLSSCDLAWWFEGRCYLVSCPHKENCEPKKMGPIRSYLTFVLRPVQRPAQLLDYGDMMLNRGSPSGIWGDSPEDIRKDLTFLGKDWGLEEMSEYSDDYRELEKDLLQPSGKQEPRGSAEYTDWGLLPGSEGAFNSSVGDSPAVPAETQQDPELHYLNESASTPAPKLPERSVLLPLPTTPSSGEVLEKEKASQLQEQSSNSSGKEVLMPSHSLPPASLELSSVTVEKSPVLTVTPGSTEHSIPTPPTSAAPSESTPSELPISPTTAPRTVKELTVSAGDNLIITLPDNEVELKAFVAPAPPVETTYNYEWNLISHPTDYQGEIKQGHKQTLNLSQLSVGLYVFKVTVSSENAFGEGFVNVTVKPARRVNLPPVAVVSPQLQELTLPLTSALIDGSQSTDDTEIVSYHWEEINGPFIEEKTSVDSPVLRLSNLDPGNYSFRLTVTDSDGATNSTTAALIVNNAVDYPPVANAGPNHTITLPQNSITLNGNQSSDDHQIVLYEWSLGPGSEGKHVVMQGVQTPYLHLSAMQEGDYTFQLKVTDSSRQQSTAVVTVIVQPENNRPPVAVAGPDKELIFPVESATLDGSSSSDDHGIVFYHWEHVRGPSAVEMENIDKAIATVTGLQVGTYHFRLTVKDQQGLSSTSTLTVAVKKENNSPPRARAGGRHVLVLPNNSITLDGSRSTDDQRIVSYLWIRDGQSPAAGDVIDGSDHSVALQLTNLVEGVYTFHLRVTDSQGASDTDTATVEVQPDPRKSGLVELTLQVGVGQLTEQRKDTLVRQLAVLLNVLDSDIKVQKIRAHSDLSTVIVFYVQSRPPFKVLKAAEVARNLHMRLSKEKADFLLFKVLRVDTAGCLLKCSGHGHCDPLTKRCICSHLWMENLIQRYIWDGESNCEWSIFYVTVLAFTLIVLTGGFTWLCICCCKRQKRTKIRKKTKYTILDNMDEQERMELRPKYGIKHRSTEHNSSLMVSESEFDSDQDTIFSREKMERGNPKVSMNGSIRNGASFSYCSKDR
Regarding B1, the binding entry is on record as “binds”.
